# According to PubChem BioAssay AID2073 (Sanford-Burnham Center for Chemical Genomics, 2009):
# By UniProt entry, the sequences of proteins in these tests, tags left out.
# UniProt Q00975, whole entry, looked up: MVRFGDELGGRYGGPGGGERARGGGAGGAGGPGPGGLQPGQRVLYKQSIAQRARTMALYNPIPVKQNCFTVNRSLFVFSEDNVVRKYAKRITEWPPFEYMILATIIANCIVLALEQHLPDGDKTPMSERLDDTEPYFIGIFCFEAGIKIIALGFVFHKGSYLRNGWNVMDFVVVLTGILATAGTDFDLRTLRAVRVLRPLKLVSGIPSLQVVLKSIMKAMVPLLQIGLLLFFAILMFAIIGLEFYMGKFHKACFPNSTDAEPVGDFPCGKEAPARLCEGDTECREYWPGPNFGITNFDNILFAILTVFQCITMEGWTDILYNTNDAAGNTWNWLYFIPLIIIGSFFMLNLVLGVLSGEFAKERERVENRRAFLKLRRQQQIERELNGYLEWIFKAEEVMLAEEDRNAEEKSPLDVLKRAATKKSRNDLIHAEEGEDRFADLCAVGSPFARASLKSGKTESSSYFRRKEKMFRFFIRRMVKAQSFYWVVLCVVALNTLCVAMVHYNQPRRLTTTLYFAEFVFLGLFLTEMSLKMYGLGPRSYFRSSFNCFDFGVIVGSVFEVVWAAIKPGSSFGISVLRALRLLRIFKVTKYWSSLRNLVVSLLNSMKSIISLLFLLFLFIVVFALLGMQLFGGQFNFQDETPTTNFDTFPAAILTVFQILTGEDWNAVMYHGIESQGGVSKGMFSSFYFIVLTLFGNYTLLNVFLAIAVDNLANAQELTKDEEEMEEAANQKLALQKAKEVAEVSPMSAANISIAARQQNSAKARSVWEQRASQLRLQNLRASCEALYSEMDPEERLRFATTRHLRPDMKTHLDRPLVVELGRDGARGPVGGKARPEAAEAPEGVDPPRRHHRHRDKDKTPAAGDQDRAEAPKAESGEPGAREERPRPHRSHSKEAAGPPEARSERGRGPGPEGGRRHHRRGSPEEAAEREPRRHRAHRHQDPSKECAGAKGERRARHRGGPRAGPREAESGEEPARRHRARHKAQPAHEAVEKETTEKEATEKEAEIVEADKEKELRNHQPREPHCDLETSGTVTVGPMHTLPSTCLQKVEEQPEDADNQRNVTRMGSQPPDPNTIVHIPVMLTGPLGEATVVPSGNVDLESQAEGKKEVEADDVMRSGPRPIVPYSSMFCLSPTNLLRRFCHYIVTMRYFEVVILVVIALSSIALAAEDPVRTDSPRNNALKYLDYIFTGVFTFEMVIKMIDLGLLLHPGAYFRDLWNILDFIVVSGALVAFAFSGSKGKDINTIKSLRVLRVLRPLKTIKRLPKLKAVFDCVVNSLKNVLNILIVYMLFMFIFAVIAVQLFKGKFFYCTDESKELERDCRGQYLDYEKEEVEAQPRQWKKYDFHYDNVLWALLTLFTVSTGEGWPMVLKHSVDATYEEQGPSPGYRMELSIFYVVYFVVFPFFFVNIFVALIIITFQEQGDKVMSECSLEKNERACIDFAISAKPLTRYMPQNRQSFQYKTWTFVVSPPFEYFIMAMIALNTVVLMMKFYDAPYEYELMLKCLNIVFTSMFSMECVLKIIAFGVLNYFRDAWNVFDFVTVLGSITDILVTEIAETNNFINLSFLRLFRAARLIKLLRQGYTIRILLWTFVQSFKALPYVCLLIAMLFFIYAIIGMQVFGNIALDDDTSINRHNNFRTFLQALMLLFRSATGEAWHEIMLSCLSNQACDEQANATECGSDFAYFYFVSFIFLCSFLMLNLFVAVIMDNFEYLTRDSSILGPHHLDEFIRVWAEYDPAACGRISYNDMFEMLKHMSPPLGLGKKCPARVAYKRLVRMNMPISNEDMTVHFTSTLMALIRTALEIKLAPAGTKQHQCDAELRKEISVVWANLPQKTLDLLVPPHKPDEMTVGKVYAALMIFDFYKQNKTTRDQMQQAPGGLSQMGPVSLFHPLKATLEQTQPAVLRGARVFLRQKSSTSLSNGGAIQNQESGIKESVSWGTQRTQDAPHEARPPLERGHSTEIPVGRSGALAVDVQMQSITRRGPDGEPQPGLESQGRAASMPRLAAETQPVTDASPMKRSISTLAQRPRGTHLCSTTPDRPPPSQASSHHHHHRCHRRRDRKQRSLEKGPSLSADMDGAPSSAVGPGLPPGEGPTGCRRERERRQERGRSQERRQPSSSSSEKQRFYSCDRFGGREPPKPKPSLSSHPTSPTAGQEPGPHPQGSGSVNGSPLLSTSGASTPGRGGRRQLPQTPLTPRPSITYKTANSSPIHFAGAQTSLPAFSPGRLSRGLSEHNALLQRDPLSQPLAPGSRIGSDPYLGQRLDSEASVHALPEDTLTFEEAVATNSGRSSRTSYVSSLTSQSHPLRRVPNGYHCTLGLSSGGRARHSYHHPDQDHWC
# About 570 (0.2%) of roughly 290,000 compounds were called active. Inconclusive means that the source gave no clear call. Such entries were picked first, then a sample of the others. Cut-off read from the data, not from the text of the source: active = inhibition mostly above about 51% (no sharp cut-off); inconclusive = no clear call, values can overlap the other calls; inactive = mostly below about 53%.
# Target: Voltage-dependent N-type calcium channel subunit alpha-1B (Homo sapiens) (UniProt Q00975)
# Test: disruptors of CaV2.2 binding to Mint1 – biochemical, HTRF (AID 2073)
# Conditions: HTRF protein-protein interaction, Mint1-CaV2.2; at 20 µM; stronger effect = higher value
row,SMILES,inhibition
1,CCOC(=O)c1sc(NC(=O)CCCCCN2C(=O)c3cccc4cccc(c34)C2=O)nc1C,active: 52.5%
2,CCOc1ccc(C2c3c(oc4cc(C)c(C)cc4c3=O)C(=O)N2CCCN2CCOCC2)cc1 (centres undefined),inconclusive: 72.2%
3,Nc1ccc(-c2nc3ccc(N)cc3o2)cc1,inconclusive: 63.7%
4,Cc1ccc(S(=O)(=O)c2c(C(=O)c3ccccc3)cnc3cc4c(cc23)OCCO4)cc1,inconclusive: 58.3%
5,COC(=O)Nc1ccc(C)c(NC(=O)OC)c1,inconclusive: 67.4%
6,Brc1ccc(Sc2cnc3ccccc3n2)cc1,inconclusive: 85.9%
7,CC(=O)Nc1ccc2c(c1)nc1n2CCN(C2CCCCC2)C1,inactive: 30.1%
8,Oc1c(C=Nc2ccccc2)sc(=S)n1Cc1ccccc1,inactive: -4.9%
9,O=C1CC(N2CCN(c3ccc(Cl)c(Cl)c3)CC2)C(=O)N1 (centres undefined),inconclusive: 75.2%
10,CN(C)c1ccc(C(C#N)c2ccc(Cl)cc2)nn1 (centres undefined),inconclusive: 91.9%
11,CN(C(=S)Nc1ccc(SC(F)F)cc1)C(c1ccccc1)c1ccccc1,inactive: -7.4%
12,O=C(O)CCSc1nnc(COc2ccc([N+](=O)[O-])cc2)n1-c1ccccc1,inconclusive: 78.3%
13,CCOC(=O)c1ccc(N2C(=O)c3n[nH]c(-c4ccco4)c3C2c2ccc([N+](=O)[O-])cc2)cc1 (centres undefined),active: 71.1%
14,CCOC(CNC(=O)c1cccc([N+](=O)[O-])c1)OCC,inconclusive: 61.5%
15,NS(=O)(=O)c1ccc(NC(=O)COC(=O)c2c3c(nc4ccccc24)/C(=C\c2ccc4c(c2)OCO4)CCC3)cc1,inconclusive: 58.7%
16,COc1cc(-c2c(C#N)c(=O)[nH]c3c2c(C)nn3-c2ccccc2)ccc1O,inconclusive: 66.6%
17,CCOc1ccc(C(=O)NCC(=O)OCC(=O)c2ccc3c(c2)-c2ccccc2C3)cc1,inactive: 18.8%
18,COc1ccc(Cl)cc1NC(=S)N(CCCN1CCOCC1)Cc1cn(C)c2ccccc12,inconclusive: 85.4%
19,CCOc1ccc(C(=O)CSCCC(=O)O)cc1,inconclusive: 80.8%
20,Cc1cc(C)c(NC(=O)CSc2nc3ccc(N4C(=O)c5ccccc5C4=O)cc3s2)c(C)c1,active: 55.2%
21,COc1ccc(-c2nc3c(c(=O)[nH]c(=O)n3Cc3ccccc3)n2C)cc1,inconclusive: 56.8%
22,CCC(C)[C@H](NC(=O)NCc1cccc(OC)c1)C(=O)OC (some centres undefined),inconclusive: 64.8%
23,CCOC(=O)C(O)(CC(=O)c1ccc(OC)cc1)C(F)(F)F (centres undefined),inactive: -6.5%
24,CC(=O)Nc1ccc(-c2nn[nH]n2)cc1,inconclusive: 96.3%

# Nos. 16 to 21, quoted:
row,SMILES,inhibition
16,COc1cc(-c2c(C#N)c(=O)[nH]c3c2c(C)nn3-c2ccccc2)ccc1O,inconclusive: 66.6%
17,CCOc1ccc(C(=O)NCC(=O)OCC(=O)c2ccc3c(c2)-c2ccccc2C3)cc1,inactive: 18.8%
18,COc1ccc(Cl)cc1NC(=S)N(CCCN1CCOCC1)Cc1cn(C)c2ccccc12,inconclusive: 85.4%
19,CCOc1ccc(C(=O)CSCCC(=O)O)cc1,inconclusive: 80.8%
20,Cc1cc(C)c(NC(=O)CSc2nc3ccc(N4C(=O)c5ccccc5C4=O)cc3s2)c(C)c1,active: 55.2%
21,COc1ccc(-c2nc3c(c(=O)[nH]c(=O)n3Cc3ccccc3)n2C)cc1,inconclusive: 56.8%
